Assay results reported in article PMC6918085.
These are yes or no findings as the source states them, for the method shown. In cells and extracts the contact can be indirect. A yes stands for co-enrichment or nearness to the bait. Other partners may have been found.

By UniProt entry, the sequences of proteins in these tests, tags left out. Residues count along the entry.
UniProt P71451, residues 35-297: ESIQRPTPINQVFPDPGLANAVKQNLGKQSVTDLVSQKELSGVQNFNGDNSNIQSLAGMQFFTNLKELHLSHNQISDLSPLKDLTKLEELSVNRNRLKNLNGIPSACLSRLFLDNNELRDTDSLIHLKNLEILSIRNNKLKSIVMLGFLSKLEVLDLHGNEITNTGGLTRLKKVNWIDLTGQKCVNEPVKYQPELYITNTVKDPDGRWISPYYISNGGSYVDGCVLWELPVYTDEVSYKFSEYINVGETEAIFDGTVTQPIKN

Target: InlC secreted by L. monocytogenes EGD in infected HeLa cells (Listeria monocytogenes EGD) (UniProt P71451)
Experiment: affinity purification with mass spectrometry; anti-InlC antibodies and protein A-Sepharose on extracts (modified RIPA buffer) of HeLa cells infected for 24 h with Listeria expressing native InlC, InlC-K^all or InlC-K^224; immunoprecipitates analysed by LC-MS/MS

B1: S100A9 in HeLa cell extracts (protein, UniProt P06702 1-114)
chain: MTCKMSQLERNIETIINTFHQYSVKLGHPDTLNQGEFKELVRKDLQNFLKKENKNEKVIEHIMEDLDTNADKQLSFEEFIMLMARLTWASHEKMHEGDEGPGHHHKPGLGEGTP
binding: binds
